In patent US20240358020A1, “FORMAMIDE DERIVATIVE AND AGRICULTURAL OR HORTICULTURAL PLANT DISEASE CONTROL AGENT” (Kumiai Chemical Industry Co., Ltd., priority 2021, published 2024):
Some results were stated once for a whole list of compounds, not compound by compound.

System: Wheat rust (Puccinia recondita)
Assay: Wheat rust control effect test
Format: in vivo
Settings: chemical solution 50 ppm active ingredient sprayed on wheat seedlings, then spray-inoculated; first leaf examined after 9 days
Text: [in the formula, N represents the total number of examined leaves, n0 represents the number of leaves having a disease severity index of 0, n1 represents the number of leaves having a disease severity index of 1, n2 represents the number of leaves having a disease severity index of 2, n3 represents the number of leaves having a disease severity index of 3, and n4 represents the number of leaves having a disease severity index of 4.]
[Test Example 2] Wheat rust (Puccinia recondita) control effect test Wheat seeds were sown in a pot, and a chemical solution was sprayed on the grown seedlings so that the concentration of the active ingredient was 50 ppm. Thereafter, a wheat rust fungus was spray-inoculated, the pot was transferred to a wet room and was kept under dark conditions, and invasion of pathogens was promoted. Thereafter, the pot was managed in a greenhouse, after 9 days, a degree of disease severity for each first leaf was examined according to the criteria in Table 220 to determine a degree of disease severity by a calculation formula of Equation 1, and a control value was determined by a calculation formula of Equation Formula 2.

SMILES | control value
O=CNc1ccc(-c2noc(C(F)(F)F)n2)cc1 [Compound A-0001, N-{4-[5-(trifluoromethyl)-1,2,4-oxadiazol-3-yl]phenyl}formamide] | more than 75
O=CN(Cc1ccccc1)c1ccc(-c2noc(C(F)(F)F)n2)cc1 [Compound A-0096, N-benzyl-N-{4-[5-(trifluoromethyl)-1,2,4-oxadiazol-3-yl]phenyl}formamide] | more than 75
O=CN(Cc1cnc2ccccc2c1)c1ccc(-c2noc(C(F)(F)F)n2)cc1 [Compound B-0004, N-(quinolin-3-ylmethyl)-N-{4-[5-(trifluoromethyl)-1,2,4-oxadiazol-3-yl]phenyl}formamide] | more than 75
O=CN(CC1CCCO1)c1ccc(-c2noc(C(F)(F)F)n2)cc1 (stereo not shown) [Compound B-0810, N-[(tetrahydrofuran-2-yl)methyl]-N-{4-[5-(trifluoromethyl)-1,2,4-oxadiazol-3-yl]phenyl}formamide] | more than 75
